Data reported in patent US20220033904A1.
These are yes or no findings as the source states them, for the method shown. Binding seen in cells or lysates may run through a third protein. Some entries that bind do so weakly or less than the wild type.

Columns and labels:
USP8CΔ = target: T1, USP8CΔ (UniProt P40818); experiment: co-IP, immunoblot (FIG. 5C)
T1 sequence (looked up): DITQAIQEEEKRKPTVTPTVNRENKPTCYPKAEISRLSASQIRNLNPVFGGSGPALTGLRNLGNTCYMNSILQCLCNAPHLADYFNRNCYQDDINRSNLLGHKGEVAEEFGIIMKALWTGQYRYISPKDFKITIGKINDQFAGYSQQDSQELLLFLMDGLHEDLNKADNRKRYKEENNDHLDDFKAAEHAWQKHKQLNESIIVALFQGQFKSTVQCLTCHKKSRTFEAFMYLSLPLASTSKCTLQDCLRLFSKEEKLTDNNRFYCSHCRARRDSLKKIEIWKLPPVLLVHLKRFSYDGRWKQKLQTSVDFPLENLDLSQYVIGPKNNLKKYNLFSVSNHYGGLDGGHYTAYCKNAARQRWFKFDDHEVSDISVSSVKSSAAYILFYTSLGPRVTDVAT

USP8 = target: T2, USP8 (UniProt P40818); experiment: co-IP in cells with all 10 FZD genes deleted (FIG. 11F)
T2 sequence (looked up): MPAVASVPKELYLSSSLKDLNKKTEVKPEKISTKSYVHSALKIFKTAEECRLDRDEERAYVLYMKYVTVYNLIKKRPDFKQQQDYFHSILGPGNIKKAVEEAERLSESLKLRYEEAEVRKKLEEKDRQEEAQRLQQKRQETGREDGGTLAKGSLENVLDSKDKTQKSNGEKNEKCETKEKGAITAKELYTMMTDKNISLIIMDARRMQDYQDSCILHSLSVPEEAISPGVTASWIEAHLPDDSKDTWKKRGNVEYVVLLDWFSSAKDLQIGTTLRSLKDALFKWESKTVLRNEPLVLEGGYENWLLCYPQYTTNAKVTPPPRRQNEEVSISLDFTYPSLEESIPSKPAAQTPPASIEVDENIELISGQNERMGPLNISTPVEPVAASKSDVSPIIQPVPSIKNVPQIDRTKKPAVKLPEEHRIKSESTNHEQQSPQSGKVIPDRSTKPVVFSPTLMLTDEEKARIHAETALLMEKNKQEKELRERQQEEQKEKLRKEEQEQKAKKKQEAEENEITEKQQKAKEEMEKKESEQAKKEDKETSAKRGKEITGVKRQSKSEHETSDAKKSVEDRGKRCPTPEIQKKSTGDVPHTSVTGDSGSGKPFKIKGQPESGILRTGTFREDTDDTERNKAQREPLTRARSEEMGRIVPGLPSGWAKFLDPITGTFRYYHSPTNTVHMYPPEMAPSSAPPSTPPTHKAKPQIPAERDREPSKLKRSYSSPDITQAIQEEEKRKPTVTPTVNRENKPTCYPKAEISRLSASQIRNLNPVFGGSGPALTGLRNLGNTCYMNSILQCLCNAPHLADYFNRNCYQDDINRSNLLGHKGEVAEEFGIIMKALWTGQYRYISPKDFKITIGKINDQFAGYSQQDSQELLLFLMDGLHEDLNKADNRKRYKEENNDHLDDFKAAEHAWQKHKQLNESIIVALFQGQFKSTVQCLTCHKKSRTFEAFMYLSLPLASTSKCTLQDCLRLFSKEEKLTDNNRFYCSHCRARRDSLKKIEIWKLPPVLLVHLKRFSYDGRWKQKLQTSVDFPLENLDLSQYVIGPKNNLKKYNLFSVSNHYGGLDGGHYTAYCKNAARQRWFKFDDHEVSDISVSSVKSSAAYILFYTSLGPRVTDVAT

USP8C = target: T3, USP8C (UniProt P40818); experiment: co-IP, immunoblot (FIG. 5C and 5E)
T3 sequence (looked up): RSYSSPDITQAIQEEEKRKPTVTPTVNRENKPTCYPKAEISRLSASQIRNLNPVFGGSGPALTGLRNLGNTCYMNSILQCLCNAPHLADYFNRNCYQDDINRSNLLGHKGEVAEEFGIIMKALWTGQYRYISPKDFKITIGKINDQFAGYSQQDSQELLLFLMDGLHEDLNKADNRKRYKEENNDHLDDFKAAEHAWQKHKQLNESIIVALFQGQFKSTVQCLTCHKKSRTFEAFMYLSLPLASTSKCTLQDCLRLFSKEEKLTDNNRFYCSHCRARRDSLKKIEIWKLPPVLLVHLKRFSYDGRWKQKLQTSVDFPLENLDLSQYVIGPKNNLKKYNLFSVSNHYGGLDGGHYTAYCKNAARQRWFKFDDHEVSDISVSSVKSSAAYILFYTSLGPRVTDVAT

[1] = target: T4, TMEM79 (mouse (Mus musculus)) (UniProt Q9D709); experiment: co-IP in FZD null cells (FIG. 11F)
T4 sequence: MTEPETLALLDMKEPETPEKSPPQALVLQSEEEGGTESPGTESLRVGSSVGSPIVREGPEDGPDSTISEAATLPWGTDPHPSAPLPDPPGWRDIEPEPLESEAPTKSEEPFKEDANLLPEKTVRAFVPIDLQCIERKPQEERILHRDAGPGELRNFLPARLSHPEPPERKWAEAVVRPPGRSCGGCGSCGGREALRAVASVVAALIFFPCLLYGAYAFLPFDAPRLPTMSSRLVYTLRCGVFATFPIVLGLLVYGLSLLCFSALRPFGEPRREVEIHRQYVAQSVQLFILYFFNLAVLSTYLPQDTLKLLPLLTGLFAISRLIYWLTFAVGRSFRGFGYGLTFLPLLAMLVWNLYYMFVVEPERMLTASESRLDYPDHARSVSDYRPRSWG

[2] = target: T4, TMEM79 (mouse (Mus musculus)); experiment: co-IP, immunoblot (FIG. 5C)

B1: TMEM79 (protein, not shown: small tags and cut ends)
chain: MTEPETLALLDMKEPETPEKSPPQALVLQSEEEGGTESPGTESLRVGSSVGSPIVREGPEDGPDSTISEAATLPWGTDPHPSAPLPDPPGWRDIEPEPLESEAPTKSEEPFKEDANLLPEKTVRAFVPIDLQCIERKPQEERILHRDAGPGELRNFLPARLSHPEPPERKWAEAVVRPPGRSCGGCGSCGGREALRAVASVVAALIFFPCLLYGAYAFLPFDAPRLPTMSSRLVYTLRCGVFATFPIVLGLLVYGLSLLCFSALRPFGEPRREVEIHRQYVAQSVQLFILYFFNLAVLSTYLPQDTLKLLPLLTGLFAISRLIYWLTFAVGRSFRGFGYGLTFLPLLAMLVWNLYYMFVVEPERMLTASESRLDYPDHARSVSDYRPRSWG
USP8CΔ
  binding: binds
USP8
  binding: binds
USP8C
  binding: binds

B2: USP8 (enzyme, UniProt P40818 1-1118, looked up, not shown: small tags and cut ends)
chain: MPAVASVPKELYLSSSLKDLNKKTEVKPEKISTKSYVHSALKIFKTAEECRLDRDEERAYVLYMKYVTVYNLIKKRPDFKQQQDYFHSILGPGNIKKAVEEAERLSESLKLRYEEAEVRKKLEEKDRQEEAQRLQQKRQETGREDGGTLAKGSLENVLDSKDKTQKSNGEKNEKCETKEKGAITAKELYTMMTDKNISLIIMDARRMQDYQDSCILHSLSVPEEAISPGVTASWIEAHLPDDSKDTWKKRGNVEYVVLLDWFSSAKDLQIGTTLRSLKDALFKWESKTVLRNEPLVLEGGYENWLLCYPQYTTNAKVTPPPRRQNEEVSISLDFTYPSLEESIPSKPAAQTPPASIEVDENIELISGQNERMGPLNISTPVEPVAASKSDVSPIIQPVPSIKNVPQIDRTKKPAVKLPEEHRIKSESTNHEQQSPQSGKVIPDRSTKPVVFSPTLMLTDEEKARIHAETALLMEKNKQEKELRERQQEEQKEKLRKEEQEQKAKKKQEAEENEITEKQQKAKEEMEKKESEQAKKEDKETSAKRGKEITGVKRQSKSEHETSDAKKSVEDRGKRCPTPEIQKKSTGDVPHTSVTGDSGSGKPFKIKGQPESGILRTGTFREDTDDTERNKAQREPLTRARSEEMGRIVPGLPSGWAKFLDPITGTFRYYHSPTNTVHMYPPEMAPSSAPPSTPPTHKAKPQIPAERDREPSKLKRSYSSPDITQAIQEEEKRKPTVTPTVNRENKPTCYPKAEISRLSASQIRNLNPVFGGSGPALTGLRNLGNTCYMNSILQCLCNAPHLADYFNRNCYQDDINRSNLLGHKGEVAEEFGIIMKALWTGQYRYISPKDFKITIGKINDQFAGYSQQDSQELLLFLMDGLHEDLNKADNRKRYKEENNDHLDDFKAAEHAWQKHKQLNESIIVALFQGQFKSTVQCLTCHKKSRTFEAFMYLSLPLASTSKCTLQDCLRLFSKEEKLTDNNRFYCSHCRARRDSLKKIEIWKLPPVLLVHLKRFSYDGRWKQKLQTSVDFPLENLDLSQYVIGPKNNLKKYNLFSVSNHYGGLDGGHYTAYCKNAARQRWFKFDDHEVSDISVSSVKSSAAYILFYTSLGPRVTDVAT
[1]
  binding: binds

B3: USP8C (enzyme, UniProt P40818 715-1118, looked up)
chain: RSYSSPDITQAIQEEEKRKPTVTPTVNRENKPTCYPKAEISRLSASQIRNLNPVFGGSGPALTGLRNLGNTCYMNSILQCLCNAPHLADYFNRNCYQDDINRSNLLGHKGEVAEEFGIIMKALWTGQYRYISPKDFKITIGKINDQFAGYSQQDSQELLLFLMDGLHEDLNKADNRKRYKEENNDHLDDFKAAEHAWQKHKQLNESIIVALFQGQFKSTVQCLTCHKKSRTFEAFMYLSLPLASTSKCTLQDCLRLFSKEEKLTDNNRFYCSHCRARRDSLKKIEIWKLPPVLLVHLKRFSYDGRWKQKLQTSVDFPLENLDLSQYVIGPKNNLKKYNLFSVSNHYGGLDGGHYTAYCKNAARQRWFKFDDHEVSDISVSSVKSSAAYILFYTSLGPRVTDVAT
[2]
  binding: binds
